According to the supplement of paper PMC10849652:
The other results are listed elsewhere or left out.

Protein sequences, listed by entry. Tags and fused reporters are not part of them. Lines headed by an entry give the natural chain unless they say otherwise; changes in a name come on top.
UniProt Q9BUE0: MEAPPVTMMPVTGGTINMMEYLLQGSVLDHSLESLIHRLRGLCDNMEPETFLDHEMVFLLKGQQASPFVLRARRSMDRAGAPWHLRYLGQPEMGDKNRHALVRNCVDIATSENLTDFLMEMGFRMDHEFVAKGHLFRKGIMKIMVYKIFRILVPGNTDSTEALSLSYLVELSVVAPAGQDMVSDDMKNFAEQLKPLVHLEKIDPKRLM
UniProt Q9NPJ6: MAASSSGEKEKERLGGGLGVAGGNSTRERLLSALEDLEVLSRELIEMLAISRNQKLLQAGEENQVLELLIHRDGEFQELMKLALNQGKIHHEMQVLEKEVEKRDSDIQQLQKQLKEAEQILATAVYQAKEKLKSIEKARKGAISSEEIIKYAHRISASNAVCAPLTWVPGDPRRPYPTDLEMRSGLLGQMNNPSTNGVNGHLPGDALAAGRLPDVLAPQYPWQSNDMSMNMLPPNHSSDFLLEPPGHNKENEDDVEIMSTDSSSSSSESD
UniProt Q8NI22: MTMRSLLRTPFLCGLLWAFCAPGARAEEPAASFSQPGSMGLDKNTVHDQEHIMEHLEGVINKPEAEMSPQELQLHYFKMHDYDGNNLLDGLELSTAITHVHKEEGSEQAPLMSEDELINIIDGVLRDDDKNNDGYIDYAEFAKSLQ
UniProt Q8TCB7: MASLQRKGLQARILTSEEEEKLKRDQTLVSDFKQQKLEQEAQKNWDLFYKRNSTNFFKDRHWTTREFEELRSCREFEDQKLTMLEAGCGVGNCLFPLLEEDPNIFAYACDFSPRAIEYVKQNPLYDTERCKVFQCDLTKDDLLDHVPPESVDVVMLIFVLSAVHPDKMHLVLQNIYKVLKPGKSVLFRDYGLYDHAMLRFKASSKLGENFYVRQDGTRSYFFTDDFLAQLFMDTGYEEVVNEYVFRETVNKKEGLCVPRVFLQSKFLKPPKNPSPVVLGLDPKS
UniProt P61244, whole entry, looked up: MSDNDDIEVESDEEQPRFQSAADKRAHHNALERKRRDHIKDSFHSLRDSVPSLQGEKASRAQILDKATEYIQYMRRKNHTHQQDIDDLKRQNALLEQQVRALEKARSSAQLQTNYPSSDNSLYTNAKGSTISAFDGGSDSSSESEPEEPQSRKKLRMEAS
UniProt Q9UHV7: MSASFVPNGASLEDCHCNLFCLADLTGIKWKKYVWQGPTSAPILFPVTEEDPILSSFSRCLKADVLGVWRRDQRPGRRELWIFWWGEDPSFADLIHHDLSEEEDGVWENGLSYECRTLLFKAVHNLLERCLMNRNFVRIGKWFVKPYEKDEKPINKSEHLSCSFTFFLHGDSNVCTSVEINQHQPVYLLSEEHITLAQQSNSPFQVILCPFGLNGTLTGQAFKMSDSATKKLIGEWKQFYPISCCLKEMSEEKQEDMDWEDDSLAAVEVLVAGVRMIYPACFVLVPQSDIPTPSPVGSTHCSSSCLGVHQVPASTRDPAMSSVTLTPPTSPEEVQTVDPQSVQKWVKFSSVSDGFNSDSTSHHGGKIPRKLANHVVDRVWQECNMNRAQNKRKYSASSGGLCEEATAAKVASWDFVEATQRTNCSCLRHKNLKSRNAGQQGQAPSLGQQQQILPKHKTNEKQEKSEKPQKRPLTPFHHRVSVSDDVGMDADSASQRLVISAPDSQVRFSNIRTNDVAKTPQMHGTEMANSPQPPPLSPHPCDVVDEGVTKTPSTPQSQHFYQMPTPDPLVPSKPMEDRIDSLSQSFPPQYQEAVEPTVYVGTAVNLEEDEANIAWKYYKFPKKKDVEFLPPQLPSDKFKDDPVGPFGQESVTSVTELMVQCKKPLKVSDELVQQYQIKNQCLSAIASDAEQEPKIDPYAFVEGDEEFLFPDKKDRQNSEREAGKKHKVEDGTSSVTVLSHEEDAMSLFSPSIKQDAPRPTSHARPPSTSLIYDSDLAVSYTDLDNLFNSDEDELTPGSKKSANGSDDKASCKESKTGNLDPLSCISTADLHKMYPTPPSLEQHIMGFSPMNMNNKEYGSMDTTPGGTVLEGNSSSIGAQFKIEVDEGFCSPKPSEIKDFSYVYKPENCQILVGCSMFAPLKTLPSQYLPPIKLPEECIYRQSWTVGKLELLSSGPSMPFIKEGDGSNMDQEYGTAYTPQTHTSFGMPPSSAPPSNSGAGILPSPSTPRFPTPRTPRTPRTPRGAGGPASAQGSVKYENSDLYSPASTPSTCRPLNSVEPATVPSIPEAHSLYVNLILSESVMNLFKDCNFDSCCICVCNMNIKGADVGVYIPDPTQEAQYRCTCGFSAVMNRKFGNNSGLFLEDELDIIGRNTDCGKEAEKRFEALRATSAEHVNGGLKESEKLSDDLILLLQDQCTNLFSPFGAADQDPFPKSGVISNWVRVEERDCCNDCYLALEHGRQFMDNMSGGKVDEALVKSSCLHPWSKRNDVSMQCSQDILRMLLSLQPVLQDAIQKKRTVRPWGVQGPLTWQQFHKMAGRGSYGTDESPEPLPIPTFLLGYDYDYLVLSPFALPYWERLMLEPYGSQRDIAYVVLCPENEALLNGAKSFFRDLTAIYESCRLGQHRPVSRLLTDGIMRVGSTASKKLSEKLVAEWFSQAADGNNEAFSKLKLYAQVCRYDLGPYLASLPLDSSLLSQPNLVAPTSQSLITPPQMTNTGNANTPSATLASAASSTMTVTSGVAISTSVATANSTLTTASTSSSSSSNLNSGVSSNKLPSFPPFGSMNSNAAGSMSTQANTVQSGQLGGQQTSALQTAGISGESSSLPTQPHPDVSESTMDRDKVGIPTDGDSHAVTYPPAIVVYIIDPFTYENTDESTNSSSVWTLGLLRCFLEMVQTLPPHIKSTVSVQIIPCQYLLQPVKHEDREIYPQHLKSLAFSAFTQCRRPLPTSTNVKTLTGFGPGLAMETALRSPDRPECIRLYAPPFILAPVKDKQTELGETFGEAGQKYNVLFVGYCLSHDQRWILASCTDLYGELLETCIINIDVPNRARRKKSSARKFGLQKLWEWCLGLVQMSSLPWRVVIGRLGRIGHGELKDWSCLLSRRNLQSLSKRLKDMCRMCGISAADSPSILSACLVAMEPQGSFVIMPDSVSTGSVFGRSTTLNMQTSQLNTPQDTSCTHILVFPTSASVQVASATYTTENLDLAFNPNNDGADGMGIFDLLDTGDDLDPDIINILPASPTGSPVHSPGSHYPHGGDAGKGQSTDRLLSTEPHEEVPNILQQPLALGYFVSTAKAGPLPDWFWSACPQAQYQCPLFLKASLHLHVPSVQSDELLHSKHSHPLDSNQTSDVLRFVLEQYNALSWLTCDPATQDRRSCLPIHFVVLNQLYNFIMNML
UniProt Q14703: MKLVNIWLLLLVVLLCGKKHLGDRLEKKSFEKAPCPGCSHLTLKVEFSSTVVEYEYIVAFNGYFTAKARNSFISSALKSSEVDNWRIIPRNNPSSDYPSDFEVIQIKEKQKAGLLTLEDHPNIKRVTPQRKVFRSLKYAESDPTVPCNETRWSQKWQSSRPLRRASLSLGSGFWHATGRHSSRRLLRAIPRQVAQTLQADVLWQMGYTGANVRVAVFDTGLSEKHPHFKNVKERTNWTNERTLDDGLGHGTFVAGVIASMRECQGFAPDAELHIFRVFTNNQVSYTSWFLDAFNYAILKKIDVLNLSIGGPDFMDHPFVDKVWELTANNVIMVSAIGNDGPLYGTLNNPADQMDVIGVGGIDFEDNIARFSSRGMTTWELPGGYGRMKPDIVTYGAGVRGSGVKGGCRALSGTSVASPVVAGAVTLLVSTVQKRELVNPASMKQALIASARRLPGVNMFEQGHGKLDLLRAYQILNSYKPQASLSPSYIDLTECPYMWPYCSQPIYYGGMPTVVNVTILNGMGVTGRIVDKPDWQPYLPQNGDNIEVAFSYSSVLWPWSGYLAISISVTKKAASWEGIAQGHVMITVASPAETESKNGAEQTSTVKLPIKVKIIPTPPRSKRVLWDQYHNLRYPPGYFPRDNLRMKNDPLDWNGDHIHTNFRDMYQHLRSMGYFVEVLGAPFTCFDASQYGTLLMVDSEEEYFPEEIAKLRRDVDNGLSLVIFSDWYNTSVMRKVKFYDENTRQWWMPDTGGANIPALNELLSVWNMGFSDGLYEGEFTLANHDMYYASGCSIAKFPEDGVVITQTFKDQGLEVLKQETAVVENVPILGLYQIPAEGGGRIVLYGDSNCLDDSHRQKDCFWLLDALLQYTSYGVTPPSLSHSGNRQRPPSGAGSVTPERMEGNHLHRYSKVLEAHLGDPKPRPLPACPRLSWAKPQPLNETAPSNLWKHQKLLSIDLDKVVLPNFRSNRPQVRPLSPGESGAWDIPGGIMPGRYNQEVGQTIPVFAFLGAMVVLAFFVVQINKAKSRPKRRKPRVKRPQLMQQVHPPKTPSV
UniProt Q5TF39: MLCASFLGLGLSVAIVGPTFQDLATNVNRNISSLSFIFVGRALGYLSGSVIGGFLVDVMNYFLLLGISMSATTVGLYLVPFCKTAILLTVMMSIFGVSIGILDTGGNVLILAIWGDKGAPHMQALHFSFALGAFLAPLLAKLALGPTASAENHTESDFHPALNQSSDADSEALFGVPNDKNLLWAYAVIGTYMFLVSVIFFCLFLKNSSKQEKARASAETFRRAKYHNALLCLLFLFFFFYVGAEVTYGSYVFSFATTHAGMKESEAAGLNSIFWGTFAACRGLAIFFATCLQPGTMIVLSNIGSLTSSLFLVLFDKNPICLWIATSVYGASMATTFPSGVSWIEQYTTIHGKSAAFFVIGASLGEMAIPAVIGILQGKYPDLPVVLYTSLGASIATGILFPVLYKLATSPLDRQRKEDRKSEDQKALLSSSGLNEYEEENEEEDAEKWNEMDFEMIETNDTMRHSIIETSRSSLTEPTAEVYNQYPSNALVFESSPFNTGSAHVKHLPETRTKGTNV
UniProt Q9BUT9: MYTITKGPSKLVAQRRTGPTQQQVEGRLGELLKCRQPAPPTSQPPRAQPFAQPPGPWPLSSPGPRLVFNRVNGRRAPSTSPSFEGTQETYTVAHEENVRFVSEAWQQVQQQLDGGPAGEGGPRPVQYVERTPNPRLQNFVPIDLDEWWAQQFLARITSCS
UniProt P21741: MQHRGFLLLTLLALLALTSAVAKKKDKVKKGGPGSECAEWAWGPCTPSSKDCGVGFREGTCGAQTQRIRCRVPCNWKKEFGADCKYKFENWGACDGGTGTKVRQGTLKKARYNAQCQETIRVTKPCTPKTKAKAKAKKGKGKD
UniProt Q10469: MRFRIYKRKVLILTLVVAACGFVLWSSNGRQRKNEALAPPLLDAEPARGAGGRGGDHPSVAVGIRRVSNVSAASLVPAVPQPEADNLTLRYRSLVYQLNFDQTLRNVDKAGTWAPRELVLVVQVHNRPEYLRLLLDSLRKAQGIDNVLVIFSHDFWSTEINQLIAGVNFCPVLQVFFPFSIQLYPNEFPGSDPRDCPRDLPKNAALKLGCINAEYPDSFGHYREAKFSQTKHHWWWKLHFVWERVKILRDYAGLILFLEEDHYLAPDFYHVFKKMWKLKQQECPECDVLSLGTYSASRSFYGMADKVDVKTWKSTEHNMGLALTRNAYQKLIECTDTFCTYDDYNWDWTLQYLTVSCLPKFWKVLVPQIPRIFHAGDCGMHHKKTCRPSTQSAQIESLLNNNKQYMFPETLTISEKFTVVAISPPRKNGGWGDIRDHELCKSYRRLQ
UniProt P23368: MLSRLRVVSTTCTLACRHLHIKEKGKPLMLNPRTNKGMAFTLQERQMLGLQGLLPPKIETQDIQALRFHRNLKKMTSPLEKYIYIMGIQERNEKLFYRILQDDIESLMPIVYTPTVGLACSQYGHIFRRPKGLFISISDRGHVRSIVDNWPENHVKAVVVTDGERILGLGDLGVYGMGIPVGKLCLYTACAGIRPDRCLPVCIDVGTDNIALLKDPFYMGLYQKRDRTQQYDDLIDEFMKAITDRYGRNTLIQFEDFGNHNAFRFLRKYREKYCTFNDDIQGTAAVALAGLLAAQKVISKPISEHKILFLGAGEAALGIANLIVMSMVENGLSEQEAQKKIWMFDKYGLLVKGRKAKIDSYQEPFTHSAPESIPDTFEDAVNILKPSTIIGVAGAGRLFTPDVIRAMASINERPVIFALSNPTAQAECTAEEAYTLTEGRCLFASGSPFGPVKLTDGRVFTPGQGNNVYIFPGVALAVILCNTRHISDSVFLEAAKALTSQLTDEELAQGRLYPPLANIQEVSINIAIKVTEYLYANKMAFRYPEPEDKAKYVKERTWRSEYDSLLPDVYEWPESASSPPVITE

Columns and labels:
Assay in all cases: log2 fold change, soluble protein after heating vs DMSO (PISA); higher = thermal stabilisation; K562 cells, 10 uM, 30 min; active = over 0.2 and 3.5 SD of the protein, either way, in both replicates (recomputed)
saracatinib = compound: CN1CCN(CCOc2cc(OC3CCOCC3)c3c(Nc4c(Cl)ccc5c4OCO5)ncnc3c2)CC1 [saracatinib]
Method in brief: (§1)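 K562 cells at 2×10^6 cells/mL were given 10 μM compound for 30 min. Aliquots then went through 3 min of heating across 48°C-58°C, were pooled, and were extracted in PBS with 0.5% NP-40 at 4°C, and the supernatant after 21,000xg for 90 min was quantified by TMTpro 16plex LC-MS/MS with channel sums equalised. Thermal stability relative to control samples, from duplicates, is given as log2 fold change.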

sotrastaurin = compound: CN1CCN(c2nc(C3=C(c4c[nH]c5ccccc45)C(=O)NC3=O)c3ccccc3n2)CC1 [sotrastaurin]
Method in brief: as §1

alvocidib = compound: CN1CC[C@H](c2c(O)cc(O)c3c(=O)cc(-c4ccccc4Cl)oc23)[C@H](O)C1 [alvocidib]
Method in brief: as §1

Tubastatin A = compound: CN1CCc2c(c3ccccc3n2Cc2ccc(C(=O)NO)cc2)C1 [Tubastatin A]
Method in brief: as §1

[1] = compound: CNC(=O)C1=CC=CC=C1NC2=NC(=NC=C2Cl)NC3=C(C=C(C=C3)N4CCOCC4)OC
Method in brief: as §1

defactinib = compound: CNC(=O)c1ccc(Nc2ncc(C(F)(F)F)c(NCc3nccnc3N(C)S(C)(=O)=O)n2)cc1 [defactinib]
Method in brief: as §1

rucaparib = compound: CNCc1ccc(-c2[nH]c3cc(F)cc4c3c2CCNC4=O)cc1 [rucaparib]
Method in brief: as §1

[2] = compound: CNc1nc(-c2ccc3c(N)n[nH]c3c2)cc(N2C[C@@H](C(=O)NC3CCCCC3)CC[C@H]2C)n1
Method in brief: as §1

encorafenib = compound: COC(=O)N[C@@H](C)CNc1nccc(-c2cn(C(C)C)nc2-c2cc(Cl)cc(NS(C)(=O)=O)c2F)n1 [encorafenib]
Method in brief: as §1

[3] = compound: COC(=O)[C@H](CCSC)NC(=O)C1=C(C=C(C=C1)NC[C@H](CS)N)C2=CC=CC=C2
Method in brief: as §1

[4] = compound: COC1=CC=C(C=C1)CN2C=CC3=C2C=C(C=C3)C(=O)NO
Method in brief: as §1

filanesib = compound: CON(C)C(=O)N1N=C(c2cc(F)ccc2F)S[C@@]1(CCCN)c1ccccc1 [filanesib]
Method in brief: as §1

zotarolimus = compound: CO[C@H]1C[C@@H]2CC[C@@H](C)[C@@](O)(O2)C(=O)C(=O)N2CCCC[C@H]2C(=O)O[C@H]([C@H](C)C[C@@H]2CC[C@H](n3cnnn3)[C@H](OC)C2)CC(=O)[C@H](C)/C=C(\C)[C@@H](O)[C@@H](OC)C(=O)[C@H](C)C[C@H](C)/C=C/C=C/C=C/1C [zotarolimus]
Method in brief: as §1

idasanutlin = compound: COc1cc(C(=O)O)ccc1NC(=O)[C@@H]1N[C@@H](CC(C)(C)C)[C@](C#N)(c2ccc(Cl)cc2F)[C@H]1c1cccc(Cl)c1F [idasanutlin]
Method in brief: as §1

alisertib = compound: COc1cc(Nc2ncc3c(n2)-c2ccc(Cl)cc2C(c2c(F)cccc2OC)=NC3)ccc1C(=O)O [alisertib]
Method in brief: as §1

[5] = compound: COc1cc2nc(-c3cc(F)ccc3O)nc(N[C@@H]3CNC[C@H]3C(C)(C)O)c2cc1OC
Method in brief: as §1

gefitinib = compound: COc1cc2ncnc(Nc3ccc(F)c(Cl)c3)c2cc1OCCCN1CCOCC1 [gefitinib]
Method in brief: as §1

[6] = compound: COc1cccc2cc(-c3nc([C@H]4CC[C@H](C(=O)O)CC4)n4ncnc(N)c34)[nH]c12
Method in brief: as §1

lapatinib = compound: CS(=O)(=O)CCNCc1ccc(-c2ccc3ncnc(Nc4ccc(OCc5cccc(F)c5)c(Cl)c4)c3c2)o1 [lapatinib]
Method in brief: as §1

pictilisib = compound: CS(=O)(=O)N1CCN(Cc2cc3nc(-c4cccc5[nH]ncc45)nc(N4CCOCC4)c3s2)CC1 [pictilisib]
Method in brief: as §1

Measured: log2 fold change

MED18 (UniProt Q9BUE0)
inactive: saracatinib -0.026 | sotrastaurin 0.055 | alvocidib -0.049 | Tubastatin A 0.014 | [1] -0.028 | defactinib -0.08 | rucaparib 0.039 | [2] 0.007 | encorafenib 0.009 | [3] -0.064 | [4] 0.009 | filanesib 0.023 | zotarolimus 0 | idasanutlin 0.064 | alisertib -0.03 | [5] -0.049 | gefitinib -0.056 | [6] 0.049 | lapatinib 0.024 | pictilisib 0.003

MED4 (UniProt Q9NPJ6)
inactive: saracatinib 0.084 | sotrastaurin -0.082 | alvocidib -0.147 | Tubastatin A 0.021 | [1] -0.009 | defactinib -0.052 | rucaparib 0.022 | [2] -0.058 | encorafenib 0.055 | [3] 0.019 | [4] 0.058 | filanesib 0.04 | zotarolimus 0.065 | idasanutlin 0.039 | alisertib -0.068 | [5] -0.02 | gefitinib -0.032 | [6] 0.032 | lapatinib 0.009 | pictilisib 0.061

MCFD2 (UniProt Q8NI22)
inactive: saracatinib -0.042 | sotrastaurin 0.118 | alvocidib -0.018 | Tubastatin A -0.017 | [1] -0.034 | defactinib -0.008 | rucaparib 0.102 | [2] -0.172 | encorafenib -0.051 | [3] 0.248 | [4] 0.043 | filanesib 0.126 | zotarolimus 0.116 | idasanutlin 0.008 | alisertib -0.269 | [5] -0.214 | gefitinib 0.035 | [6] 0.038 | lapatinib -0.073 | pictilisib -0.027

METTL6 (UniProt Q8TCB7)
inactive: saracatinib -0.147 | sotrastaurin 0.108 | alvocidib -0.041 | Tubastatin A -0.022 | [1] 0.202 | [2] 0.027 | [4] -0.319 | filanesib -0.171 | zotarolimus -0.026 | idasanutlin 0.007 | alisertib -0.092 | [5] 0.175 | [6] 0.315 | lapatinib -0.091 | pictilisib 0.34

MAX (UniProt P61244)
inactive: saracatinib 0.084 | sotrastaurin 0.068 | alvocidib 0.092 | Tubastatin A -0.092 | [1] -0.041 | defactinib 0 | rucaparib -0.027 | [2] -0.073 | encorafenib -0.043 | [3] 0.033 | [4] -0.024 | filanesib 0.02 | zotarolimus -0.036 | idasanutlin 0.03 | alisertib -0.078 | [5] 0.012 | gefitinib -0.002 | [6] 0.046 | lapatinib -0.004 | pictilisib 0.021

MED13 (UniProt Q9UHV7)
inactive: saracatinib 0.13 | sotrastaurin -0.33 | alvocidib 0.057 | Tubastatin A 0.023 | defactinib 0.285 | rucaparib 0.099 | [2] 0.094 | encorafenib 0.197 | [3] 0.022 | [4] 0.045 | filanesib 0.072 | zotarolimus 0.058 | idasanutlin 0.007 | alisertib -0.057 | [5] 0 | gefitinib -0.012 | [6] 0.04 | lapatinib 0.126 | pictilisib 0.177

MCAM (UniProt P43121)
inactive: saracatinib -0.003 | sotrastaurin 0.038 | alvocidib -0.033 | Tubastatin A 0.004 | [1] -0.009 | defactinib -0.023 | rucaparib -0.056 | [2] 0.032 | encorafenib 0 | [3] 0.005 | [4] 0.012 | filanesib 0.03 | zotarolimus -0.056 | idasanutlin -0.011 | alisertib -0.019 | [5] -0.003 | gefitinib 0.031 | [6] 0.074 | lapatinib 0.014 | pictilisib 0.143

MBTPS1 (UniProt Q14703)
inactive: saracatinib 0.006 | sotrastaurin -0.046 | alvocidib -0.024 | Tubastatin A 0.036 | [1] 0.008 | defactinib 0.038 | rucaparib 0.167 | [2] -0.044 | encorafenib -0.041 | [3] -0.057 | [4] -0.075 | filanesib 0.089 | zotarolimus 0.007 | idasanutlin 0.003 | alisertib -0.219 | [5] -0.036 | gefitinib 0.035 | [6] -0.037 | lapatinib 0.091 | pictilisib -0.017

Quoted from above (2 entries):
METTL6 (UniProt Q8TCB7)
inactive: saracatinib -0.147 | sotrastaurin 0.108 | alvocidib -0.041 | Tubastatin A -0.022 | [1] 0.202 | [2] 0.027 | [4] -0.319 | filanesib -0.171 | zotarolimus -0.026 | idasanutlin 0.007 | alisertib -0.092 | [5] 0.175 | [6] 0.315 | lapatinib -0.091 | pictilisib 0.34

MAX (UniProt P61244)
inactive: saracatinib 0.084 | sotrastaurin 0.068 | alvocidib 0.092 | Tubastatin A -0.092 | [1] -0.041 | defactinib 0 | rucaparib -0.027 | [2] -0.073 | encorafenib -0.043 | [3] 0.033 | [4] -0.024 | filanesib 0.02 | zotarolimus -0.036 | idasanutlin 0.03 | alisertib -0.078 | [5] 0.012 | gefitinib -0.002 | [6] 0.046 | lapatinib -0.004 | pictilisib 0.021

Next part.

MGAT4B isoform 3 (UniProt Q9UQ53)
inactive: saracatinib -0.051 | sotrastaurin 0.034 | alvocidib 0.066 | Tubastatin A -0.117 | [1] -0.017 | defactinib -0.012 | rucaparib -0.04 | [2] 0.052 | encorafenib 0.039 | [3] -0.054 | [4] -0.134 | filanesib 0.046 | zotarolimus -0.012 | idasanutlin 0.013 | alisertib 0.055 | [5] 0.13 | gefitinib -0.023 | [6] 0.004 | lapatinib 0 | pictilisib -0.053

MFSD4B (UniProt Q5TF39)
inactive: saracatinib 0.109 | sotrastaurin -0.013 | alvocidib 0.037 | Tubastatin A 0.009 | defactinib 0.12 | rucaparib -0.253 | [2] -0.135 | encorafenib 0.033 | [3] 0.028 | [4] 0.017 | filanesib -0.054 | zotarolimus -0.018 | idasanutlin 0.02 | alisertib -0.035 | [5] 0.056 | gefitinib 0.035 | [6] 0.079 | lapatinib -0.054 | pictilisib 0.135

MED24 (UniProt O75448)
inactive: saracatinib 0.02 | sotrastaurin -0.097 | alvocidib -0.054 | Tubastatin A -0.095 | [1] -0.008 | defactinib 0.002 | rucaparib 0.083 | [2] -0.042 | encorafenib 0.093 | [3] 0.034 | [4] 0.056 | filanesib -0.006 | zotarolimus 0.068 | idasanutlin 0.017 | alisertib -0.033 | [5] -0.1 | gefitinib 0.111 | [6] 0.031 | lapatinib 0.042 | pictilisib 0.095

MCRIP2 (UniProt Q9BUT9)
inactive: saracatinib 0.165 | sotrastaurin 0.106 | alvocidib 0.03 | Tubastatin A -0.016 | [1] -0.028 | rucaparib 0.093 | [2] -0.077 | encorafenib -0.063 | [4] -0.059 | filanesib 0.101 | zotarolimus 0.192 | [5] -0.004 | lapatinib -0.074 | pictilisib 0.08

MDK (UniProt P21741)
inactive: saracatinib -0.005 | sotrastaurin 0.144 | alvocidib 0.026 | Tubastatin A -0.117 | [1] 0.059 | [2] -0.125 | filanesib 0.552 | zotarolimus -0.113 | idasanutlin 0.52 | alisertib -0.025 | [5] -0.022 | gefitinib 0.043 | [6] -0.156 | lapatinib 0.083 | pictilisib -0.045

MGAT2 (UniProt Q10469)
inactive: saracatinib -0.046 | sotrastaurin -0.017 | alvocidib -0.064 | Tubastatin A -0.02 | [1] 0.04 | defactinib -0.072 | rucaparib -0.069 | [2] -0.013 | encorafenib 0.084 | [3] -0.038 | [4] -0.018 | filanesib -0.113 | zotarolimus 0.018 | idasanutlin -0.076 | alisertib -0.025 | [5] -0.036 | gefitinib 0.018 | [6] -0.032 | lapatinib -0.018 | pictilisib 0.086

MCM2 (UniProt P49736)
inactive: saracatinib 0.007 | sotrastaurin 0.003 | alvocidib -0.097 | Tubastatin A -0.006 | [1] 0.015 | defactinib -0.102 | rucaparib -0.046 | [2] -0.026 | encorafenib -0.011 | [3] -0.011 | [4] 0.058 | filanesib -0.065 | zotarolimus 0.028 | idasanutlin -0.07 | alisertib -0.062 | [5] 0.044 | gefitinib 0.002 | [6] 0.016 | lapatinib -0.044 | pictilisib 0.01

MIA2 (UniProt Q96PC5)
inactive: saracatinib 0.003 | sotrastaurin -0.106 | Tubastatin A -0.013 | [1] 0.021 | defactinib -0.085 | rucaparib 0.074 | [2] -0.001 | encorafenib 0.07 | [3] 0.037 | [4] -0.017 | filanesib 0.121 | zotarolimus 0.037 | idasanutlin -0.017 | alisertib 0.069 | [5] 0.027 | gefitinib 0.034 | [6] -0.109 | lapatinib 0.029 | pictilisib -0.019

ME2 (UniProt P23368)
inactive: saracatinib 0.061 | sotrastaurin 0.014 | Tubastatin A 0.026 | [1] 0.151 | defactinib -0.037 | rucaparib -0.011 | [2] -0.11 | encorafenib 0.015 | [3] 0.034 | [4] -0.037 | filanesib 0.012 | zotarolimus -0.052 | idasanutlin 0.196 | alisertib 0.002 | [5] 0.076 | gefitinib 0.023 | [6] -0.046 | lapatinib -0.003 | pictilisib 0.056
